Reference: publication PMC11990662, “Synthesis and Evaluation of the Antiproliferative Activity of the Derivatives of 3,5-Diaryl-3,4-dihydro-2H-pyrrole-2-carboxylic Acids” (Molecules, 2025)

Legend:
[1] = test system: MCF-7 (luminal type A breast carcinoma); assay: MTT antiproliferative assay, MCF-7; type: cell-based, human
Procedure: (§1) Antiproliferative activity of some compounds was evaluated on cell cultures derived from MDA-MB-231 (triple negative human breast carcinoma). […] This finding allowed us to further investigate the antiproliferative activity of selected compounds on additional tumor cell lines. We studied the influence of the stereochemical orientation of the substituents at C2 and C3 in substituted 3,4-dihydro-2H-pyrrole-2-carbonitriles. The antiproliferative activity of single diastereomers of some nitriles 4 and the amide cis-6m were assessed on multiple human cancer cell lines via the MTT assay. For these experiments, the following human cell lines were used: MCF-7 (luminal type A breast carcinoma), MD-MBA-231, H1299 (non-small-cell lung carcinoma cells), A549 (lung alveolar adenocarcinoma), HeLa (cervical cancer), HepG2 (hepatocellular carcinoma), HT-29 (colorectal adenocarcinoma) and PC3 (prostate adenocarcinoma). As a model of normal tissue, we used MCF-10A (non-tumorigenic epithelial cells of mammary gland). Table 5 and Table 6 present the values of concentration that inhibits cell viability to 50% (IC50) and selectivity index (SI = IC50(MCF-10A)/IC50(tumor cell line)).
(§2) The antiproliferative activity testing was performed on cell cultures from several human cancer cell lines the MTT-dye reduction assay, described by Mosmann. Cell lines were obtained from the American Type Cultures Collection (ATCC, Manassas, VA, USA). In this article we used the following cell lines: MCF-10A (ATCC, CRL-10317™) Non-tumorigenic epithelial cells of mammary gland, MCF-7 (ATCC, HTB-22™) Luminal type A breast carcinoma, MDA-MB-231 (ATCC, HTB-26™) Triple negative breast carcinoma, H1299 (ATCC, CRL-5803™) Non-small-cell lung carcinoma, A549 (ATCC, CRM-CCL-185™) Llung alveolar adenocarcinoma, HeLa (ATCC, CCL-2™) Cervical cancer, Hep G2 (ATCC, HB-8065™) Hepatocellular carcinoma, HT-29 (ATCC, HTB-38™) Colorectal adenocarcinoma, PC-3 (ATCC, CRL-1435™) Prostate adenocarcinoma. The cells were cultured in a cell culture laboratory at the Institute of Experimental Morphology, Pathology and Anthropology with a Museum—Bulgarian Academy of Sciences. They were cultured in Dulbecco’s Modified Eagle’s medium, high glucose (DMEM 4.5 g/L glucose), supplied with 10% fetal bovine serum and antibiotics in usual concentrations in a humidified atmosphere with 5% CO2 at 37.5 °C. In the case of MCF-10A cells, epidermal growth factor, insulin and cholera toxin were added in concentrations corresponding to the cell bank instructions. Cells were plated at a density of 1 × 10^3 cells per well in a 96-well flat-bottomed microplates and allowed to adhere for 24 h before treatment with the test compounds, dissolved in DMSO, and further diluted in culture medium to the final concentrations. A concentration ranges from 5 µM to 4.1 mM was tested over an incubation period of 72 h. Cisplatin (Sigma-Aldrich) was used as a positive control in a concentration range 50 nM to 100 µM. All experiments were performed in triplicates. The MTT-formazan absorption was measured using a microplate reader (TECAN, Sunrise^TM, Groedig/Salzburg, Austria) at 570 nm. Antiproliferative activities were expressed as IC50 values (concentrations required for 50% inhibition of cell growth), calculated using non-linear regression analysis (GraphPad Prizm8 Software). The statistical analysis involved One-way ANOVA followed by Bonferroni’s post hoc test p < 0.05 was accepted as the lowest level of statistical significance.

[2] = test system: MDA-MB-231 (triple negative human breast carcinoma); assay: MTT antiproliferative assay, MDA-MB-231; type: cell-based
Procedure: as §1, §2

[3] = test system: H1299 (non-small-cell lung carcinoma cells); assay: MTT antiproliferative assay, H1299; type: cell-based, human
Procedure: as §1, §2

[4] = test system: A549 (lung alveolar adenocarcinoma); assay: MTT antiproliferative assay, A549; type: cell-based, human
Procedure: as §1, §2

HeLa (cervical cancer) = assay: MTT antiproliferative assay, HeLa; type: cell-based, human
Procedure: as §1, §2

[5] = test system: HepG2 (hepatocellular carcinoma); assay: MTT antiproliferative assay, HepG2; type: cell-based, human
Procedure: as §1, §2

[6] = test system: HT-29 (colorectal adenocarcinoma); assay: MTT antiproliferative assay, HT-29; type: cell-based, human
Procedure: as §1, §2

[7] = test system: PC3 (prostate adenocarcinoma); assay: MTT antiproliferative assay, PC3; type: cell-based, human
Procedure: as §1, §2

[8] = test system: MCF-10A (non-tumorigenic epithelial cells of mammary gland); assay: MTT antiproliferative assay, MCF-10A; type: cell-based, human; details: MCF-10A (reference line)
Procedure: as §1, §2

| Compound | SI = IC50(MCF-10A)/IC50(tumor cell line) [1] | SI = IC50(MCF-10A)/IC50(tumor cell line) [2] | SI = IC50(MCF-10A)/IC50(tumor cell line) [3] | SI = IC50(MCF-10A)/IC50(tumor cell line) [4] | SI = IC50(MCF-10A)/IC50(tumor cell line) (HeLa (cervical cancer)) | SI = IC50(MCF-10A)/IC50(tumor cell line) [5] | SI = IC50(MCF-10A)/IC50(tumor cell line) [6] | SI times higher than SI of Cisplatin [6] [times] | SI = IC50(MCF-10A)/IC50(tumor cell line) [7] | SI = IC50(MCF-10A)/IC50(tumor cell line) [8] | SI times higher than SI of Cisplatin [4] [times] |
| --- | --- | --- | --- | --- | --- | --- | --- | --- | --- | --- | --- |
| COc1cc(O)c(C2=N[C@@H](C#N)[C@H](c3ccc(C)c(F)c3)C2)c(OC)c1 (relative stereo) [cis-4m, rel-(2R,3S)-3-(3-fluoro-4-methylphenyl)-5-(2-hydroxy-4,6-dimethoxyphenyl)-3,4-dihydro-2H-pyrrole-2-carbonitrile] | 0.92 | 10.5 | 6.68 | 1.74 | 0.75 | 1.45 | 8.66 | 3 | 1.47 |  |  |
| N.N.[Cl][Pt][Cl] [Cisplatin, reference compound] | 0.50 | 12.7 | 4.62 | 0.60 | 1.18 | 1.22 | 2.84 |  | 6.93 | 1 |  |
| N#C[C@@H]1N=C(c2ccccc2)C[C@@H]1c1cccnc1 (racemic) [cis-4h] | 1.65 | < 0.55 | 0.76 | 7.33 | 1.03 | 0.76 | 1.39 |  | 1.19 | 1 |  |
| COc1cc(O)c(C2=N[C@@H](C#N)[C@H](c3ccc(C)c(F)c3)C2)c(OC)c1 (racemic) [trans-4m] | 0.53 | 0.11 | 2.18 | 2.46 | 0.07 | 1.78 | 2.82 |  | 1.79 | 1 |  |
| COc1ccc(C2=N[C@@H](C#N)[C@@H](c3ccccc3)C2)cc1 (racemic) [cis-4e] | 0.24 | < 0.12 | 0.51 | 1.25 | 2.69 | 0.77 | 1.39 |  |  | 1 |  |
| COc1cc(O)c(C2=N[C@@H](C(N)=O)[C@@H](c3ccc(C)c(F)c3)C2)c(OC)c1 [cis-6m] | 0.46 | 0.22 | 0.23 | 3.16 | 0.36 | 3.67 | 6.67 |  | 3.44 | 1 |  |
| Cc1ccc(C2=N[C@@H](C#N)[C@H](c3ccccc3)C2)cc1 (relative stereo) [trans-4k, rel-(2R,3S)-5-(4-methylphenyl)-3-phenyl-3,4-dihydro-2H-pyrrole-2-carbonitrile] | 0.32 | 0.58 | 0.51 | 15.5 | 2.16 | 1.14 | 1.33 |  | 1.50 | 1 | 26 |
| Cc1ccc(C2=N[C@@H](C#N)[C@@H](c3ccccc3)C2)cc1 (racemic) [cis-4k] | 0.28 | 0.04 | 0.51 | 1.27 | 0.61 | 0.44 | 0.12 |  | 0.35 | 1 |  |
